# PubChem BioAssay AID1224831 – NIAID | 2016
# Aim: 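Confirming genome-wide hits on LPS-triggered TNF-alpha induction with independent siRNA sequences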 (follow-up of hits)
# Cell system: human THP-1 B5 monocytic leukaemia cells carrying a TNF promoter luciferase reporter, made macrophage-like with PMA
# Reagents: single siRNA against human genes, 50 nM
# Time to read-out: about 68 h of knock-down, then 4 h LPS
# Challenge: LPS (Salmonella minnesota, TLR-grade) at 10 ng/ml for 4 h; PMA 5 ng/ml present during knock-down
# Measurement: 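Firefly to renilla luciferase ratio of a TNF promoter reporter after 4 h LPS, scaled to plate median, turned into robust z-score, averaged over replicates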
# Scale: TNF reporter z-score: higher = stronger LPS-induced TNF reporter signal; z-score, median over gene's siRNAs: higher = stronger TNF reporter signal across the gene's siRNAs
# Rule for the call: 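Active when the replicate mean z-score is about -1 or lower, or about 1.5 or higher; lowered and raised TNF reporter signal both count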
# Calls: active = changed TNF reporter (either direction); inactive = little change
# The deposit covers about 3,500 reagents; below is a part drawn at random. 731 of all reagents (21%) were called active. 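Active means either lowered or raised reporter signal; the gene-median score did not drive the per-siRNA calls.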 The numbers tell different reagents against one gene apart.
target,reagent,"TNF reporter z-score, replicate mean","z-score, median over gene's siRNAs",Call
SASS6,1,0.33,1.5,inactive
SASS6,2,0.93,1.5,inactive
SASS6,3,2.07,1.5,active
SASS6,4,2.36,1.5,active
SASS6,5,2.33,1.5,active
SASS6,6,0.4,1.5,inactive
RPIA,1,0.83,-0.085,inactive
RPIA,2,-0.8,-0.085,inactive
RPIA,3,0.41,-0.085,inactive
RPIA,4,0.79,-0.085,inactive
RPIA,5,-1.24,-0.085,active
RPIA,6,-0.58,-0.085,inactive
ACKR1,1,0.61,0.215,inactive
ACKR1,2,0.18,0.215,inactive
ACKR1,3,0.02,0.215,inactive
ACKR1,4,0.25,0.215,inactive
ACKR1,5,-0.94,0.215,inactive
ACKR1,6,0.51,0.215,inactive
FBXL16,1,1.03,0.425,inactive
FBXL16,2,0.7,0.425,inactive
FBXL16,3,0.15,0.425,inactive
FBXL16,4,-0.36,0.425,inactive
FBXL16,5,-0.06,0.425,inactive
FBXL16,6,2.5,0.425,active
FILIP1L,1,0.33,0.39,inactive
FILIP1L,2,-0.25,0.39,inactive
FILIP1L,3,0.45,0.39,inactive
FILIP1L,4,0.63,0.39,inactive
FILIP1L,5,-0.07,0.39,inactive
FILIP1L,6,0.68,0.39,inactive
C9orf72,1,-0.58,-0.625,inactive
C9orf72,2,-0.67,-0.625,inactive
C9orf72,3,-1.23,-0.625,active
C9orf72,4,-0.27,-0.625,inactive
C9orf72,5,-0.19,-0.625,inactive
C9orf72,6,-0.96,-0.625,inactive
RAPGEF5,1,-1.1,-0.35,active
RAPGEF5,2,-0.63,-0.35,inactive
RAPGEF5,3,-1.48,-0.35,active
RAPGEF5,4,-0.07,-0.35,inactive
RAPGEF5,5,0.02,-0.35,inactive
RAPGEF5,6,0.46,-0.35,inactive
PSMA6,1,-1.88,-1.67,active
PSMA6,2,-1.74,-1.67,active
PSMA6,3,-1.87,-1.67,active
PSMA6,4,-1.33,-1.67,active
PSMA6,5,-1.34,-1.67,active
PSMA6,6,-1.6,-1.67,active

Entries listed so far called active (14):
target,reagent,"TNF reporter z-score, replicate mean","z-score, median over gene's siRNAs",Call
SASS6,3,2.07,1.5,active
SASS6,4,2.36,1.5,active
SASS6,5,2.33,1.5,active
RPIA,5,-1.24,-0.085,active
FBXL16,6,2.5,0.425,active
C9orf72,3,-1.23,-0.625,active
RAPGEF5,1,-1.1,-0.35,active
RAPGEF5,3,-1.48,-0.35,active
PSMA6,1,-1.88,-1.67,active
PSMA6,2,-1.74,-1.67,active
PSMA6,3,-1.87,-1.67,active
PSMA6,4,-1.33,-1.67,active
PSMA6,5,-1.34,-1.67,active
PSMA6,6,-1.6,-1.67,active

The listing continues.
target,reagent,"TNF reporter z-score, replicate mean","z-score, median over gene's siRNAs",Call
RNF121,1,0.27,0.31,inactive
RNF121,2,2.55,0.31,active
RNF121,3,0.35,0.31,inactive
RNF121,4,3.62,0.31,active
RNF121,5,0.27,0.31,inactive
RNF121,6,-0.47,0.31,inactive
HNRNPC,1,-0.38,-0.07,inactive
HNRNPC,2,0.63,-0.07,inactive
HNRNPC,3,0.42,-0.07,inactive
HNRNPC,4,0.08,-0.07,inactive
HNRNPC,5,-0.85,-0.07,inactive
HNRNPC,6,-0.22,-0.07,inactive
RGS20,1,0.8,0.085,inactive
RGS20,2,-0.03,0.085,inactive
RGS20,3,0.15,0.085,inactive
RGS20,4,0.02,0.085,inactive
RGS20,5,-0.4,0.085,inactive
RGS20,6,0.6,0.085,inactive
TMED10,1,3.15,-0.04,active
TMED10,2,-0.29,-0.04,inactive
TMED10,3,-0.05,-0.04,inactive
TMED10,4,-0.03,-0.04,inactive
TMED10,5,0.45,-0.04,inactive
TMED10,6,-0.6,-0.04,inactive
PSMD7,1,-0.2,-0.27,inactive
PSMD7,2,-0.17,-0.27,inactive
PSMD7,3,-0.34,-0.27,inactive
PSMD7,4,-1.81,-0.27,active
PSMD7,5,-0.64,-0.27,inactive
PSMD7,6,0.23,-0.27,inactive
SPOP,1,0.74,0.505,inactive
SPOP,2,0.35,0.505,inactive
SPOP,3,-0.31,0.505,inactive
SPOP,4,0.66,0.505,inactive
SPOP,5,-0.6,0.505,inactive
SPOP,6,1.05,0.505,inactive
PGLYRP3,1,1.47,0.245,inactive
PGLYRP3,2,-0.45,0.245,inactive
PGLYRP3,3,1.17,0.245,inactive
PGLYRP3,4,-0.74,0.245,inactive
PGLYRP3,5,0.11,0.245,inactive
PGLYRP3,6,0.38,0.245,inactive
PDZD4,1,1.43,0.115,inactive
PDZD4,2,-1.56,0.115,active
PDZD4,3,1.01,0.115,inactive
PDZD4,4,-1.97,0.115,active
PDZD4,5,0.3,0.115,inactive
PDZD4,6,-0.07,0.115,inactive
ARTN,1,-0.08,-0.93,inactive
ARTN,2,-1.24,-0.93,active
ARTN,3,-1.02,-0.93,active
ARTN,4,-0.84,-0.93,inactive
ARTN,5,-0.11,-0.93,inactive
ARTN,6,-1.45,-0.93,active
VPS36,1,-2.08,-0.15,active
VPS36,2,2.64,-0.15,active
VPS36,3,-0.75,-0.15,inactive
VPS36,4,3.1,-0.15,active
VPS36,5,0.45,-0.15,inactive
VPS36,6,-1.15,-0.15,active
